Measurements taken from the supplement of paper PMC12819154, “High-throughput peptide-centric local stability assay extends protein–ligand identification to membrane proteins, tissues and bacteria” (Nature Structural & Molecular Biology, 2025).
Some of the results follow. Most entries show no effect beyond the scatter of the controls.

Protein sequences, listed by entry. Tags and fused reporters are not part of them. Lines headed by an entry give the natural chain unless they say otherwise; changes in a name come on top.
UniProt Q9H3R0: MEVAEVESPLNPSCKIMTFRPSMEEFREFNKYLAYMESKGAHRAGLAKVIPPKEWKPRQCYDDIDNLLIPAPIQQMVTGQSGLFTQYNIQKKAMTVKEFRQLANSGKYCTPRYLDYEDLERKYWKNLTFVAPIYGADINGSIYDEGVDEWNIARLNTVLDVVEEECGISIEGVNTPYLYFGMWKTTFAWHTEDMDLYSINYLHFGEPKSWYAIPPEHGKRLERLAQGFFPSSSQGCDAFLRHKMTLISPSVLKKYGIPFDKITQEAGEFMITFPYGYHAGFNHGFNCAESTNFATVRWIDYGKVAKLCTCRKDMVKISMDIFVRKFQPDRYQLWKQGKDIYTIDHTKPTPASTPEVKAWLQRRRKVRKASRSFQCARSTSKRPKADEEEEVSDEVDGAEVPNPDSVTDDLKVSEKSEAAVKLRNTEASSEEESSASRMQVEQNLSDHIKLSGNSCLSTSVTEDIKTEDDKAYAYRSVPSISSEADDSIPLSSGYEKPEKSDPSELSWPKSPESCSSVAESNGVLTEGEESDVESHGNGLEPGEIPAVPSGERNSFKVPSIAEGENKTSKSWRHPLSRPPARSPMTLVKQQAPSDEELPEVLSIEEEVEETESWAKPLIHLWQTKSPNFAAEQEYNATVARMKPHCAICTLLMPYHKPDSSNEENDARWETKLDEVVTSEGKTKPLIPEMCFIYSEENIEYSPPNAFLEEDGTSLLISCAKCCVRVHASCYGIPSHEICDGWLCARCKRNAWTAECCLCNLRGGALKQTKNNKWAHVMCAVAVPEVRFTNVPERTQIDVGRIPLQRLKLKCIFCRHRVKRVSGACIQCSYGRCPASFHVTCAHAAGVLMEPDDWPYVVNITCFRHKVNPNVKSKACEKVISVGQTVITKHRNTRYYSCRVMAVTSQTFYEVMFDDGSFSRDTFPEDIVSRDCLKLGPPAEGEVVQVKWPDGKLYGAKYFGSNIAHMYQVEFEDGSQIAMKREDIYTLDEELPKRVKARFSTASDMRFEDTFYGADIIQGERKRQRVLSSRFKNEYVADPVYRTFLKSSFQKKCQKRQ
UniProt Q9C0E2: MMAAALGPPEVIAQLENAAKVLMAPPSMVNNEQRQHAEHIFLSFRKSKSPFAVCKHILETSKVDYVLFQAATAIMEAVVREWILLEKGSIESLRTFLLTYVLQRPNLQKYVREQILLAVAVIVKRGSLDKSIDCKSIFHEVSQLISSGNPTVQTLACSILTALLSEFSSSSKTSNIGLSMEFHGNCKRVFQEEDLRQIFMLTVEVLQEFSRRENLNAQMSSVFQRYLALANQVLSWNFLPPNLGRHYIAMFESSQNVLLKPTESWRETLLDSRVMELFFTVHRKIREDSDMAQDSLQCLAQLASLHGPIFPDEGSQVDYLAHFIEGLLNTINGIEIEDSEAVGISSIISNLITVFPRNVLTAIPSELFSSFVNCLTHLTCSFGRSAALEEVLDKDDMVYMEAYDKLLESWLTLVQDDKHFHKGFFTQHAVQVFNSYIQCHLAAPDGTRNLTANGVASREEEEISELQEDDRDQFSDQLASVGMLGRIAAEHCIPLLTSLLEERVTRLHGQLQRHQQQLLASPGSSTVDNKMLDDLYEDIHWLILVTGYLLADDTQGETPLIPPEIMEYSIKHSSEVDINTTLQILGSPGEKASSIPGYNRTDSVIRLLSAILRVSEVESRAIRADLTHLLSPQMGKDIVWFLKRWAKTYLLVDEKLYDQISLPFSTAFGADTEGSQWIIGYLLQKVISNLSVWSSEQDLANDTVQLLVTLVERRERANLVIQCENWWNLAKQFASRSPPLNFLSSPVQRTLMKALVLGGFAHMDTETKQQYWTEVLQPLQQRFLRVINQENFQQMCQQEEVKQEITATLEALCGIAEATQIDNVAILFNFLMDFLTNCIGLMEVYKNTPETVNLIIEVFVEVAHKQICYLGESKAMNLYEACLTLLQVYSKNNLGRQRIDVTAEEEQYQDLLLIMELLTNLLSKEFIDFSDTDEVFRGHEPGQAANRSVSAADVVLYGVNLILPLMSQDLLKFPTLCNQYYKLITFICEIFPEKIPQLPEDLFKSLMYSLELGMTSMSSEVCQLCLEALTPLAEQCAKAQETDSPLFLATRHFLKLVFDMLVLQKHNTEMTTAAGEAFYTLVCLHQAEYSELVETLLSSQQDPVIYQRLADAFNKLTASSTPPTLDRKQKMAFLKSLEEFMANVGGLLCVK
UniProt Q9H1M0: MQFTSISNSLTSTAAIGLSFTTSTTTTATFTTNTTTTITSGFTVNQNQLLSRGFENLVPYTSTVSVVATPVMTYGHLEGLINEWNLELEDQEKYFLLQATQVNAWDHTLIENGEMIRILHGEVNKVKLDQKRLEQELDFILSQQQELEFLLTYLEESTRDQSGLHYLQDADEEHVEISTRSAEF
UniProt Q9BZH6: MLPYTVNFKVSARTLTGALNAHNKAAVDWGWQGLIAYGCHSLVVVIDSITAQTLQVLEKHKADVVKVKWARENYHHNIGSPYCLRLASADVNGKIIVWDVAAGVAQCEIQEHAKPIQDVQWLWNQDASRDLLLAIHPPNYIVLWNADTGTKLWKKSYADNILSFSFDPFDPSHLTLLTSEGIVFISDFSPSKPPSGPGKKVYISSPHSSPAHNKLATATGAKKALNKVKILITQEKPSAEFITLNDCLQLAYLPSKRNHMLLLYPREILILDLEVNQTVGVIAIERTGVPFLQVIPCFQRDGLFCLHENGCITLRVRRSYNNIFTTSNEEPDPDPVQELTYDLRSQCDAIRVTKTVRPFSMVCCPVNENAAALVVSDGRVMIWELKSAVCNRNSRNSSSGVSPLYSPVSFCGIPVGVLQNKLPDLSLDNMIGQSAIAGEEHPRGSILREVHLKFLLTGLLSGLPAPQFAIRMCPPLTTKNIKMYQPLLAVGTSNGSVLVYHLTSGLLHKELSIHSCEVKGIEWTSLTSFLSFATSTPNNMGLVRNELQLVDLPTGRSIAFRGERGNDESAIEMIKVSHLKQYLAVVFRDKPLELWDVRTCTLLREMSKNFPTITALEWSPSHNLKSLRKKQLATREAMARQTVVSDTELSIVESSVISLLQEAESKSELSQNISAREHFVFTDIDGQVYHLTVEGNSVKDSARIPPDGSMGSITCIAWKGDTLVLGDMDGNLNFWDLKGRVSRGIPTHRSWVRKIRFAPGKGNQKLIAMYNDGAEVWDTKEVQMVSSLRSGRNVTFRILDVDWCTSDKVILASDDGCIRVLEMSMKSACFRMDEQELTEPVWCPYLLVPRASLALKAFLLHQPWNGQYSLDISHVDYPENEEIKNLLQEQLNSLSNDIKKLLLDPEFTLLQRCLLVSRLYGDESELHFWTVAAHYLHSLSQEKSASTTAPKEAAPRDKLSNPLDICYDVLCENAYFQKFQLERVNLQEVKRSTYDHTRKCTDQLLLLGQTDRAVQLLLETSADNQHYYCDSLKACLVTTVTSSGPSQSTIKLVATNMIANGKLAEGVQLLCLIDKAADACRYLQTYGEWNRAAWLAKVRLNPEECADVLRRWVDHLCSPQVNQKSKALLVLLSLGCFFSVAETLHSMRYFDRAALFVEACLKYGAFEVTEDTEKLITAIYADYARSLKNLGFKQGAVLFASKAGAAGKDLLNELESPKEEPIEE
UniProt Q9GZT9: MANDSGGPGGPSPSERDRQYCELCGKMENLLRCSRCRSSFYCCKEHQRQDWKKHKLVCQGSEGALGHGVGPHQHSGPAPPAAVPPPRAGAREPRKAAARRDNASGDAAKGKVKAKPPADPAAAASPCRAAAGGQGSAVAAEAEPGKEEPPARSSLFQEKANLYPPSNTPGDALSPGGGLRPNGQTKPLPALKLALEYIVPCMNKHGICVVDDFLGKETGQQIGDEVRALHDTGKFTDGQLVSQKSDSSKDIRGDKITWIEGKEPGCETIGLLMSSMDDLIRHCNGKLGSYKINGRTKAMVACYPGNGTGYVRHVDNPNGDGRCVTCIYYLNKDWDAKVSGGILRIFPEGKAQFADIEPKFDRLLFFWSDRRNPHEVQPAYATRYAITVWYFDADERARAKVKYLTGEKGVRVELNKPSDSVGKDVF
UniProt Q9BWK5: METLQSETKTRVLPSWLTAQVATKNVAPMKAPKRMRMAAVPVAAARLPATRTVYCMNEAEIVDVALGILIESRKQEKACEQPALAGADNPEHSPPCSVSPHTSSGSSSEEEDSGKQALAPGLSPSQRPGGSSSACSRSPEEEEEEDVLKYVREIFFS
UniProt Q9H1E3: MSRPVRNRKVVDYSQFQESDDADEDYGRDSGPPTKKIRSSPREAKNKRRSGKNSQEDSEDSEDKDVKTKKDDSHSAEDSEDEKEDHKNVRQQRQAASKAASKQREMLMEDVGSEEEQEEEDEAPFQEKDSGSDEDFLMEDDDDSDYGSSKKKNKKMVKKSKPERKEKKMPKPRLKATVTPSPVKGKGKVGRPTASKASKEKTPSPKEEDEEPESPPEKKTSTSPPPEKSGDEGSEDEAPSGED
UniProt Q9H0A0: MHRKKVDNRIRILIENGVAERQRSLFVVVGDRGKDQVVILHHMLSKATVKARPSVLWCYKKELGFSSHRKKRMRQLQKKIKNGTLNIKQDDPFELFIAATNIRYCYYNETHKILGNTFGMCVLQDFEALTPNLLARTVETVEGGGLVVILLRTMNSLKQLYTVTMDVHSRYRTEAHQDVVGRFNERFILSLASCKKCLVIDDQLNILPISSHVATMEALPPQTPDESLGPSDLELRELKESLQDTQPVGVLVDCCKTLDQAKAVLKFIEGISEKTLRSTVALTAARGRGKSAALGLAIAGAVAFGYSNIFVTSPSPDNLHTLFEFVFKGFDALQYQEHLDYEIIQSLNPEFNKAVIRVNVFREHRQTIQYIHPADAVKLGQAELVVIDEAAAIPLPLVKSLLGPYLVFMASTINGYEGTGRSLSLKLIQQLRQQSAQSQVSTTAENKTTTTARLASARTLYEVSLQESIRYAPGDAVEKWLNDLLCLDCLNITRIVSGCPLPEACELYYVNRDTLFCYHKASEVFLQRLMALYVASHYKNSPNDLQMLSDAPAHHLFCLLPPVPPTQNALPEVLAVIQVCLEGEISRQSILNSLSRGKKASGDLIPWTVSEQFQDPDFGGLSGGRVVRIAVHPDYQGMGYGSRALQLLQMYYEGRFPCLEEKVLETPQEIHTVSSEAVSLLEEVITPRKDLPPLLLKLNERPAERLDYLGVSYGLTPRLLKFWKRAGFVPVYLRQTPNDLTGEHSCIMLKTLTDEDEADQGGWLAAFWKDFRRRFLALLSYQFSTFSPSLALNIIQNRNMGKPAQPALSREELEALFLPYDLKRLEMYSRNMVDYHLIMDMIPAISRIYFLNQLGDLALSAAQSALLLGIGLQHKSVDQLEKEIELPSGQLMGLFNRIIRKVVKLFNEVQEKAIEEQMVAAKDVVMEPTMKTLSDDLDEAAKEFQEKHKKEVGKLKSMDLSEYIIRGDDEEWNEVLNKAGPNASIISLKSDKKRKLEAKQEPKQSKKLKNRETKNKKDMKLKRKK
UniProt Q9H0H5: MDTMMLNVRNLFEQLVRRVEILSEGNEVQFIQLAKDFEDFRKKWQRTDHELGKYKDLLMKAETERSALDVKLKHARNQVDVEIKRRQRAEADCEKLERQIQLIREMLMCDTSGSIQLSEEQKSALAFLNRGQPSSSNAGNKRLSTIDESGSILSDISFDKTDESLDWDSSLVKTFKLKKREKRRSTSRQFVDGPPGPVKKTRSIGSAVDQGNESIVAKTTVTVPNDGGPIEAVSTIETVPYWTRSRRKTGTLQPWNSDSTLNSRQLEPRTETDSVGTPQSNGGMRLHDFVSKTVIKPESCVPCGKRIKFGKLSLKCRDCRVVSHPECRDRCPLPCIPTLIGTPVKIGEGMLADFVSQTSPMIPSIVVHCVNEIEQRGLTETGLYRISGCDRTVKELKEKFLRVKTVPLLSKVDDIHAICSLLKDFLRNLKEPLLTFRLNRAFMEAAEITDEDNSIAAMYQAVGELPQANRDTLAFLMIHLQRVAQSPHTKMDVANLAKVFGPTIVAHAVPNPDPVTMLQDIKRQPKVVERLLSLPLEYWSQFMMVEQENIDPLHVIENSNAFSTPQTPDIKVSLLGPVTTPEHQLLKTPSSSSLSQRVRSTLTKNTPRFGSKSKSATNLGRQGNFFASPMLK
UniProt Q9H0C5: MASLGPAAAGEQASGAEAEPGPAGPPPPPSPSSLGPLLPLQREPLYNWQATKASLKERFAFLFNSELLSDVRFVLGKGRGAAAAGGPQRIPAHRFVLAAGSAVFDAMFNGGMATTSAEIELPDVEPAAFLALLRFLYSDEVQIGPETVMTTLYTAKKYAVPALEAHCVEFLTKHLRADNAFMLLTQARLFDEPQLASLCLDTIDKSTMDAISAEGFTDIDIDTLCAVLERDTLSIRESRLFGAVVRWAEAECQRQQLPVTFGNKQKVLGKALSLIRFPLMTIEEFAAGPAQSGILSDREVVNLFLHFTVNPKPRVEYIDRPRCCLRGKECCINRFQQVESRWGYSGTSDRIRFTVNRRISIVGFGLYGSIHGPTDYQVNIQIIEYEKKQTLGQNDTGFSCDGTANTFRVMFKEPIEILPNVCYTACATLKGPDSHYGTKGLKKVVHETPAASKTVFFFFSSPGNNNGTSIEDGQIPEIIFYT

compound: CN[C@@H]1C[C@H]2O[C@@](C)([C@@H]1OC)n1c3ccccc3c3c4c(c5c6ccccc6n2c5c31)C(=O)NC4 [staurosporine]; experiment: log2 fold change of tryptic peptide abundance, ligand vs vehicle (limited proteolysis) (log2 ratio); higher = more trypsin-susceptible (destabilized); conditions: ligand concentration: 20 uM; sample: K562 cleared lysate; digestion: 4 min, 22 C (HT-PELSA RT4min, Orbitrap Astral)

**Q.** Which log2 fold change does the source give for “KDM4C (peptide sequence: VISVGQTVITK, peptide start residue: 878) (UniProt Q9H3R0)” here?
**A.** -0.688

**Q.** “ASCC2 (peptide sequence: PALPLDQLQITHKDPK, peptide start residue: 2) (UniProt Q9H1I8)” was tested. Which log2 fold change did it give?
**A.** 0.183

**Q.** How did the log2 fold change turn out when “SH3BGRL3 (peptide sequence: RIQYQLVDISQDNALRDEMR, peptide start residue: 32) (UniProt Q9H299)” was run?
**A.** -0.115

**Q.** For “PAIP1 (peptide sequence: VHATSTYR, peptide start residue: 380) (UniProt Q9H074)”, which log2 fold change is on record?
**A.** 0.314

**Q.** “MMADHC (peptide sequence: LVSYLPGFCSLVK, peptide start residue: 11) (UniProt Q9H3L0)” was tested. Which log2 fold change did it give?
**A.** -0.371

**Q.** With “DPH5 (peptide sequence: VKEQSLENLIK, peptide start residue: 167) (UniProt Q9H2P9)” as the target, how does the log2 fold change read?
**A.** -0.236

**Q.** “XPO4 (peptide sequence: TSNIGLSMEFHGNCK, peptide start residue: 173) (UniProt Q9C0E2)” was tested. Which log2 fold change did it give?
**A.** -0.415

**Q.** “MRPL32 (peptide sequence: NNIDVCPECGHLK, peptide start residue: 105) (UniProt Q9BYC8)” was tested. Which log2 fold change did it give?
**A.** 0.0589

**Q.** Which log2 fold change does the source give for “UniProt Q9C0D4 (peptide sequence: QLIKPVPFCPVR, peptide start residue: 806)” here?
**A.** -0.519

**Q.** How did the log2 fold change turn out when “UniProt Q9H1M0 (peptide sequence: ILHGEVNK, peptide start residue: 118)” was run?
**A.** 0.163

**Q.** “COMMD4 (peptide sequence: ELLGQGIDYEK, peptide start residue: 40) (UniProt Q9H0A8)” was tested. Which log2 fold change did it give?
**A.** 0.265

**Q.** Which log2 fold change does the source give for “SLC38A1 (peptide sequence: RSLTNSHLEK, peptide start residue: 51) (UniProt Q9H2H9)” here?
**A.** -0.129

**Q.** How did the log2 fold change turn out when “RAB3GAP2 (peptide sequence: TVKPLSLFDSK, peptide start residue: 1175) (UniProt Q9H2M9)” was run?
**A.** 0.428

**Q.** “SPRY4 (peptide sequence: LLDHMAPPPVADQASPR, peptide start residue: 111) (UniProt Q9C004)” was tested. Which log2 fold change did it give?
**A.** 0.206

**Q.** Which log2 fold change does the source give for “UniProt Q9H320 (peptide sequence: SSSQPSPSDPK, peptide start residue: 22)” here?
**A.** -0.0896

**Q.** With “UniProt Q9GZT3 (peptide sequence: LPQTSDDEKK, peptide start residue: 98)” as the target, how does the log2 fold change read?
**A.** 0.195

**Q.** Which log2 fold change does the source give for “WDR11 (peptide sequence: LATATGAKK, peptide start residue: 215) (UniProt Q9BZH6)” here?
**A.** -0.32

**Q.** Which log2 fold change does the source give for “PARP12 (peptide sequence: VVLAASPLR, peptide start residue: 65) (UniProt Q9H0J9)” here?
**A.** 0.447

**Q.** With “AMBRA1 (peptide sequence: FLLPEYLPYAGIFHER, peptide start residue: 809) (UniProt Q9C0C7)” as the target, how does the log2 fold change read?
**A.** -0.215

**Q.** How did the log2 fold change turn out when “CEP295 (peptide sequence: SESAEHTIPSLFLPK, peptide start residue: 1635) (UniProt Q9C0D2)” was run?
**A.** 0.485

**Q.** How did the log2 fold change turn out when “UniProt Q9H0G5 (peptide sequence: NQEKPSNSESSLGAK, peptide start residue: 485)” was run?
**A.** -0.266

**Q.** For “MRPL37 (peptide sequence: ESLLLQVR, peptide start residue: 216) (UniProt Q9BZE1)”, which log2 fold change is on record?
**A.** 0.265

**Q.** Which log2 fold change does the source give for “CRNKL1 (peptide sequence: VNQFWYK, peptide start residue: 309) (UniProt Q9BZJ0)” here?
**A.** 0.41

**Q.** With “EGLN1 (peptide sequence: AKPPADPAAAASPCR, peptide start residue: 114) (UniProt Q9GZT9)” as the target, how does the log2 fold change read?
**A.** -0.221

**Q.** “CYREN (peptide sequence: METLQSETK, peptide start residue: 1) (UniProt Q9BWK5)” was tested. Which log2 fold change did it give?
**A.** 0.24

**Q.** “PARD6B (peptide sequence: LLEEDGTIITL, peptide start residue: 362) (UniProt Q9BYG5)” was tested. Which log2 fold change did it give?
**A.** -0.276

**Q.** Which log2 fold change does the source give for “NUCKS1 (peptide sequence: EEDEEPESPPEKK, peptide start residue: 207) (UniProt Q9H1E3)” here?
**A.** -0.44

**Q.** “UniProt Q9BXM7 (peptide sequence: APGAPAFPLAIK, peptide start residue: 208)” was tested. Which log2 fold change did it give?
**A.** 0.208

**Q.** How did the log2 fold change turn out when “RBCK1 (peptide sequence: CAIWLAEQR, peptide start residue: 30) (UniProt Q9BYM8)” was run?
**A.** -0.563

**Q.** “WDR33 (peptide sequence: EMEAPGGPSEDRGGK, peptide start residue: 1246) (UniProt Q9C0J8)” was tested. Which log2 fold change did it give?
**A.** -0.193

**Q.** How did the log2 fold change turn out when “WNK3 (peptide sequence: KCIVLVTELMTSGTLK, peptide start residue: 295) (UniProt Q9BYP7)” was run?
**A.** -0.355

**Q.** For “NAT10 (peptide sequence: ARPSVLWCYK, peptide start residue: 51) (UniProt Q9H0A0)”, which log2 fold change is on record?
**A.** 0.787

**Q.** “UniProt Q9BWN1 (peptide sequence: LSPWGLAPLFR, peptide start residue: 241)” was tested. Which log2 fold change did it give?
**A.** 0.237

**Q.** How did the log2 fold change turn out when “API5 (peptide sequence: KVLEDVTGEEFVLFMK, peptide start residue: 181) (UniProt Q9BZZ5)” was run?
**A.** 0.555

**Q.** How did the log2 fold change turn out when “RACGAP1 (peptide sequence: QGNFFASPMLK, peptide start residue: 622) (UniProt Q9H0H5)” was run?
**A.** 0.095

**Q.** “BTBD1 (peptide sequence: EVVNLFLHFTVNPKPR, peptide start residue: 299) (UniProt Q9H0C5)” was tested. Which log2 fold change did it give?
**A.** -0.68

**Q.** For “WDR61 (peptide sequence: LWDLENGK, peptide start residue: 90) (UniProt Q9GZS3)”, which log2 fold change is on record?
**A.** 0.275
